This note sets out measurements from ChEMBL document CHEMBL1123653 (J Med Chem, 1987).

As usually defined, the Ki is a dissociation constant, usually derived from enzyme kinetics or from competition with a known ligand.

This test deals with T1, 5-hydroxytryptamine receptor 1A (Rattus norvegicus, UniProt P19327).
T1 sequence (P19327 whole entry): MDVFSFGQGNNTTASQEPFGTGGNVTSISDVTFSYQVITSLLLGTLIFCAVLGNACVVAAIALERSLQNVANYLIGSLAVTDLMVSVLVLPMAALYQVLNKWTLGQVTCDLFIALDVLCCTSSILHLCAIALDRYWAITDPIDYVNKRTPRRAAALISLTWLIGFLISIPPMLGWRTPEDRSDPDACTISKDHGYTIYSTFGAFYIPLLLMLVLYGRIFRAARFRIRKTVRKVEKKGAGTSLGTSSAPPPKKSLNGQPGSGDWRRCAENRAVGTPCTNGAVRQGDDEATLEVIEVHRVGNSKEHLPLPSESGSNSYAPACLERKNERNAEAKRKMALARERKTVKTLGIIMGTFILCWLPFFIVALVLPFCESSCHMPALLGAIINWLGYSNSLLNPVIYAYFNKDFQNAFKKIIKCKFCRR

With `CC(C)NC[C@H](O)COc1cccc2ccccc12` [LEVOPROPRANOLOL], the affinity corresponds to a Ki of 115 nM.
